{
  "source": "patent US5807691A",
  "about": "“Polypeptides having serotonin receptor activity (5HT5A), nucleic acids coding for these polypeptides and uses thereof” (Institut National De La Sante et Da La Recherche Medicale, priority 1992, dated 1998)",
  "key": {"5HT1D": {"target": "5HT1D", "conditions": "cited from earlier work"}},
  "data": [
    {"molecule": "CC(C)NC[C@H](O)COc1cccc2ccccc12", "note": "[(-)Propanolol]", "values": [
      {"measurement": "pKi 5HT1D (Calf caudate)", "setting": "5HT1D", "result": 5.5},
      {"measurement": "pKi 5HT5 (Cos-7)", "setting": "5HT5a receptor", "result": 4.9}
    ]}
  ]
}
